Data reported in the supplement of paper PMC12823440, “Inhibitors supercharge kinase turnover through native proteolytic circuits” (Nature, 2025).
Structures can show the parent of a compound that is named as a salt. Some of the results follow. The calls rarely recur for the same compound in another form.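 Kinases were expressed as nanoluciferase fusions in K562 cells and luminescence was read every 4 h between 2 and 18 h as percent of control, DMSO set to 100% and a positive control to 0%. A time point counts as decreased when the signal drops significantly (2 sigma). The hit call is the authors' own, does not follow from the count of time points alone, and its rule is not shown.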

Protein sequences, listed by entry. Tags and fused reporters are not part of them.
UniProt P15056, whole entry, looked up: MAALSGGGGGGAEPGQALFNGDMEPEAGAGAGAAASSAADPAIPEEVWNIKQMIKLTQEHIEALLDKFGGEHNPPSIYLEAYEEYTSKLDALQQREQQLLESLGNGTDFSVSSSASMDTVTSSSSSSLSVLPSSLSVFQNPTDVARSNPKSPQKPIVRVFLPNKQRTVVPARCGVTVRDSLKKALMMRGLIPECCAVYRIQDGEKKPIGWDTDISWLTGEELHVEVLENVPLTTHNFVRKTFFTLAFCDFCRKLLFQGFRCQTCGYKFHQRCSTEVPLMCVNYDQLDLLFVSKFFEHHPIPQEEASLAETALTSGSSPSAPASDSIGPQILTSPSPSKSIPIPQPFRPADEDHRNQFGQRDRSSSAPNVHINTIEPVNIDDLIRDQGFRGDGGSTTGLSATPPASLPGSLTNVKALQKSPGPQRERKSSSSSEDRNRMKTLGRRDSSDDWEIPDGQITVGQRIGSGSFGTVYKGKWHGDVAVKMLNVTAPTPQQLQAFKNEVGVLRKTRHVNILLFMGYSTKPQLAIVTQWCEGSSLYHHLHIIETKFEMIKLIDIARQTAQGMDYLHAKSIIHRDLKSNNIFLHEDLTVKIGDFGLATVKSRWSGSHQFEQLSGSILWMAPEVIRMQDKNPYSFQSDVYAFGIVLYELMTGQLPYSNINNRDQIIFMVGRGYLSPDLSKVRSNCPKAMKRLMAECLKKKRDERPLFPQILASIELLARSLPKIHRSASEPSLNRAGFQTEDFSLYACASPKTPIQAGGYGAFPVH

These molecules were tested against BRAF (UniProt P15056) (assay: kinase-Nluc reporter destabilization hit call (1 = scored as downregulated) (binary); higher = compound decreases kinase abundance). Conditions: K562; 2-18 h.

kinase-Nluc reporter destabilization hit call, inactive:
COc1ccc2c(OCc3nnc4ccc(-c5ccccc5)nn34)ccnc2c1 (2 µM) 0, COc1cc2ncnc(Nc3ccc(Cl)cc3F)c2cc1OC (10 µM) 0, N#Cc1c(C2CCNCC2)cc(-c2c(O)cccc2OCC2CC2)nc1N [ACHP (Hydrochloride)] (10 µM) 0, CNC(=O)c1c(F)cccc1Nc1nc(Nc2cc3c(cc2OC)CCN3C(=O)CN(C)C)nc2[nH]ccc12 (10 µM) 0, CN1CCN(c2cccc(Nc3nc4c(-c5ccc(S(C)(=O)=O)cc5)cccn4n3)c2)CC1 (10 µM) 0, Cn1cc(-c2ccc3c(c2)CCN3C(=O)Cc2cccc(C(F)(F)F)c2)c2c(N)ncnc21 (2.5 µM) 0, O=Nc1c(-c2c(O)[nH]c3ccc(F)cc23)[nH]c2ccccc12 [5'-Fluoroindirubinoxime] (10 µM) 0, C=C(CC[C@@H](C(=O)O)[C@H]1[C@H](O)C[C@@]2(C)C3=C(CC[C@]12C)[C@@]1(C)CC[C@H](OC(C)=O)C(C)(C)[C@@H]1CC3)C(C)C [Pachymic acid] (10 µM) 0, CCNc1nc(Nc2cc(F)c(C(=O)N3CCOCC3)cc2OC)ncc1C(F)(F)F [GNE-7915 (tosylate)] (10 µM) 0, Nc1ncnc2c1c(-c1cccc(OCc3ccccc3)c1)cn2C1CC(CN2CCC2)C1 (stereo not drawn) (2.5 µM) 0, Cc1cc2ncc(-c3ccc(O)c(O)c3)nc2cc1C [Tyrphostin AG1433] (10 µM) 0, CCN1CCN(Cc2ccc(Nc3ncc(F)c(-c4cc(F)c5nc(C)n(C(C)C)c5c4)n3)nc2)CC1 [Abemaciclib (methanesulfonate)] (10 µM) 0, S=C(SSC(=S)N1CCOCC1)N1CCOCC1 (10 µM) 0, Cn1nccc1Nc1nccc(-c2ccn([C@H](CO)c3ccc(Cl)c(F)c3)c(=O)c2)n1 [Ravoxertinib hydrochloride] (10 µM) 0, c1ccc(-c2[nH]ncc2-c2ccnc3ccccc23)nc1 (10 µM) 0, O=C(CSC1=NCCN1)NC1CCCCCC1 [ICCB-19 (hydrochloride)] (2.5 µM) 0, Cn1cc(-c2cnn3c(N)c(Br)c([C@@H]4CCCNC4)nc23)cn1 (2.5 µM) 0, O=C(Nc1cn[nH]c1-c1ccccn1)c1nn(C2CCNCC2)cc1Cl (10 µM) 0, Cc1nc(-c2cn3c(n2)-c2ccc(-c4cnn(C(C)(C)C(N)=O)c4)cc2OCC3)n(C(C)C)n1 [Taselisib] (10 µM) 0, O=C(NCCN1CCOCC1)c1cc2c(Oc3ccc(NC(=O)C4(C(=O)Nc5ccc(F)cc5)CC4)cc3)ccnc2[nH]1 [Tyrosine kinase inhibitor] (10 µM) 0, CN(CC(=O)N(Cc1ccc(C2CCCCC2)cc1)c1ccc(C(=O)NO)cc1)S(=O)(=O)c1c(F)c(F)c(F)c(F)c1F (2.5 µM) 0, Cc1c(-c2c(F)cc(C(N)=O)c3[nH]c4c(c23)CC[C@H](C(C)(C)O)C4)cccc1-n1c(=O)c2cccc(F)c2n(C)c1=O (2.5 µM) 0, c1cncc(CN2CCC(n3ncc4c(N5CCOCC5)nc(-c5ccc6[nH]ccc6c5)nc43)CC2)c1 (10 µM) 0, Cc1cccc(-c2[nH]ncc2-c2ccc(F)c(-c3cnn(CCO)c3)c2)n1 (10 µM) 0, COc1cccc(OC)c1C(=O)OCc1cc(O)ccc1O[C@@H]1O[C@H](CO)[C@@H](O)[C@H](O)[C@H]1O [Curculigoside] (10 µM) 0, CNC(=O)c1ccc(C)c(-n2c(C)cc(OCc3ccc(F)cc3F)c(Br)c2=O)c1 (10 µM) 0, C=CC(=O)Nc1cc(C)ccc1Nc1nc(Nc2cc(OC)ncc2C)ncc1C(F)(F)F (10 µM) 0, CC(=O)NC1CC(n2cnc(NC(=O)Cc3ccc4ccccc4c3)c2)C1 (stereo not drawn) (10 µM) 0
